In paper PMC2034086:
No constants are given. Whether binding was seen depends on the method and setting. Binding seen in cells or lysates may run through a third protein. Binding can be weak; no strength is given.

Target: E-cadherin (human (endogenous in MCF-7/6))
Test: co-IP; endogenous proteins in total lysates of MCF-7/6 cells metabolically labelled with Tran35S (cells treated for 2 h with 1 uM RA, with solvent, or untreated); precipitated with HECD-1 (anti-E-cadherin) or immune serum 1522 (anti-beta-catenin) and protein G sepharose; washed three times with lysis buffer; SDS-PAGE (6%) and fluorography

B1: gamma-catenin (protein, UniProt P14923 1-745)
chain: MEVMNLMEQPIKVTEWQQTYTYDSGIHSGANTCVPSVSSKGIMEEDEACGRQYTLKKTTTYTQGVPPSQGDLEYQMSTTARAKRVREAMCPGVSGEDSSLLLATQVEGQATNLQRLAEPSQLLKSAIVHLINYQDDAELATRALPELTKLLNDEDPVVVTKAAMIVNQLSKKEASRRALMGSPQLVAAVVRTMQNTSDLDTARCTTSILHNLSHHREGLLAIFKSGGIPALVRMLSSPVESVLFYAITTLHNLLLYQEGAKMAVRLADGLQKMVPLLNKNNPKFLAITTDCLQLLAYGNQESKLIILANGGPQALVQIMRNYSYEKLLWTTSRVLKVLSVCPSNKPAIVEAGGMQALGKHLTSNSPRLVQNCLWTLRNLSDVATKQEGLESVLKILVNQLSVDDVNVLTCATGTLSNLTCNNSKNKTLVTQNSGVEALIHAILRAGDKDDITEPAVCALRHLTSRHPEAEMAQNSVRLNYGIPAIVKLLNQPNQWPLVKATIGLIRNLALCPANHAPLQEAAVIPRLVQLLVKAHQDAQRHVAAGTQQPYTDGVRMEEIVEGCTGALHILARDPMNRMEIFRLNTIPLFVQLLYSSVENIQRVAAGVLCELAQDKEAADAIDAEGASAPLMELLHSRNEGTATYAAAVLFRISEDKNPDYRKRVSVELTNSLFKHDPAAWEAAQSMIPINEPYGDDMDATYRPMYSSDVPLDPLEMHMDMDGDYPIDTYSDGLRPPYPTADHMLA
For B1, the binding was “binds”.
